Consider 107 sequences from PubChem BioAssay AID1508600 (Functional Genomics Laboratory (NCATS/FGL), 2020).

The whole screen tested about 53,000 sequences, of which about 3,700 (7%) were called active.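 The calls were made as follows: active = gene knockdowns whose robust z-score for IL-1 alpha signal is at least 2 or at most -2, so actives lie on both sides; inactive = the rest.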 Some of the results follow.

The nature of the assay: Components of the Cytosolic LPS Sensing Pathway: Gene Identification via Genome-wide siRNA Screen.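 Also: robust z of the log signal after scaling to non-targeting control siRNA wells of the plate.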 The note with it: RAW264.7 macrophages, IL-1a HTRF, actives lie on both sides, screened at 100 nM (by protocol), cells primed 5 h with Pam3CSK4 first. In a few lines: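 Three distinct siRNAs per gene were tested singly at 100 nM in RAW264.7 macrophages. Following Pam3CSK4 priming and 24 hour LipidA transfection, IL-1a secretion was read by HTRF.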
For orientation: In TR-FRET formats the signal depends on donor and acceptor labels being close together.
For GGAACAUGGACACCACACUTT against Thap3, the z-score is inactive: 0.879.
The result for CCACUAGGAGUUUACUCCGTT against Efcab5 reads inactive: -1.3; that for GCUGUUGUAACCAUAACAGTT against Ntsr1, inactive: 0.439; that for GGAGAUCAAGAACUACGUCTT against Mrpl12, inactive: 0.639.
To GGGACCACAGCACUGGUUUTT against Cox6a1 belongs inactive: 0.186; to GCUACCUACUCAACAUUGCTT against Trim32, inactive: 0.524.
To GGAGAGAAUAUCACAAUUGTT against Tas2r102 belongs inactive: 0.00892; to GGUAUUUUGGUGGACGGGUTT against Rbm17, inactive: 0.148; to CGACCAGCUUCUAGUGCUUTT against Pcdha8, inactive: -0.431.
Take GGAACAGAUGGGUGUGAAATT against Wnt2b: the z-score was inactive: -0.0195.
The result for GCUGUCAUGGGAAAAAUUGTT against Olfr729 reads inactive: -0.541.
The result for GGAAGCCAAAGGUCUCAACTT against Crct1 reads inactive: 1.05; that for GGUUGUACGAUUAUAAAGGTT against Arih2, inactive: 0.36.
Consider GGUGUACGAUGCAGUACCCTT against Slamf8, for which the z-score was inactive: -0.144.
To GGUAAUGGCUCACUUAAUATT against Malt1 belongs inactive: -0.427; to GGAGCAAGAGUCUAAAUGATT against Rubcn, active: -2.23.
To GCUCCAGAGUUCGUCUUUGTT against Zfp64 belongs inactive: -0.0115.
The result for AGUACCCAUAUCAACGAAGTT against Olfr926 reads inactive: -0.209; that for GGCUUUUUGAGGUAUUUCATT against Cnpy1, inactive: -0.00398.
In the case of GGCCCUCAUCAUAAAUGCUTT against Dctn6, the z-score was inactive: -0.525.
Consider CGUAGCAACUUGUUUCUCUTT against Bend3, for which the z-score was inactive: -1.72.
In the case of CCAGGAAUUACUACGUCCGTT against Cyba, the z-score was inactive: -1.51.
To GGUCAGAGGUCGACCUAUUTT against Oas1h belongs active: -2.18; to CCUUCUUUGUUCCAUAAGATT against Hapln2, inactive: -0.858; to GGGAACAUUUAUCCCUGUGTT against Olfr480, inactive: -0.512.
With CCUUUGAUUGACAGAAAGATT against Etv5, the z-score was inactive: 1.14.
In the case of GGAGACAGGGUUUUUCCUGTT against Tap1, the z-score is inactive: -0.165.
To GGACUACGUAUUUUCCCUGTT against Cyc1 belongs inactive: -0.39; to GGUUUCUUUUCCUCUGGGCTT against Gata1, inactive: -0.204.
The result for GGAGUCUCCAAUGAAAUGUTT against Kcnma1 reads inactive: -0.464.
With GGUCUUCGAAGCUACGAUATT against Edem1, the z-score was inactive: 0.0301.
To GGGCAAUAAGAUGUACGUUTT against Eomes belongs active: 3.24; to GGCUUCCAGAAUUCAAAUUTT against Rer1, inactive: 1.37.
The result for GGCCAAAGAAGAAUCUCCUTT against Aebp2 reads inactive: -0.124; that for GGCAAUACGUGAAGAAAAATT against Baz1a, inactive: -0.493.
To GGAUAAGAAGACCUGCAUCTT against Gng12 belongs inactive: -1.88; to GGGAAAAGUUUUGGAAAAUTT against Hps5, inactive: -0.406; to GGACAUGCAUCUUGUUUUCTT against Olfr1307, inactive: -1.03.
GGUUCCAAUGCUAUUGAAUTT against Tc2n: the z-score is inactive: 0.391.
The result for GCCUUAACAAUGUUAAUCATT against Cadm2 reads inactive: -1.09; that for GGGACGUGAAGAUGAAGAATT against Fbp1, inactive: 0.496; that for GGAUUGAAGAAGAAAAGUCTT against Creb1, inactive: -0.761.
Regarding GGAAGUCAAGGAAGCCUUCTT against Olfr368, the z-score was inactive: 0.947.
To CCAUUGACUCCAGUGGGAATT against Ntmt1 belongs inactive: 0.298; to GGAAGAGUGUAUCAUUCUUTT against Dusp9, inactive: 0.129; to CGUGAGGUUUGGAGGGUCATT against Rps9, inactive: -0.344.
For the sequence “CCUAAAUGGAUAGGGUUGCTT against 1700001C19Rik”, the z-score was inactive: -0.378.
The result for GGAAAAGACAAGGAAUAUGTT against Ube2r2 reads inactive: -0.126.
For GGAGAGUGGCAUUACCUAUTT against Meis3, the z-score was inactive: 0.983.
The result for UGCUGACGACAUCCCAUGCTT against Olfr255 reads inactive: -0.0376.
To GGAAAGAUUUCGAACAAUCTT against Rab1a belongs inactive: 1.66; to GGAGAAAGUGCGUCUAUAATT against Gdi2, inactive: 0.109.
The result for GGAUUUGCAUCUUAAGGAATT against Map3k7cl reads inactive: 0.743; that for GCAUGUAGUGGAGAAAUGCTT against Zbtb12, inactive: -0.744; that for GGCAUUUGUGCUCUUCGGATT against Sctr, inactive: -0.847.
For CCAUUAUCAAGGAACAAGCTT against Itgb4, the z-score is inactive: -0.151.
The result for GGACAAUUCUAUCAAGUGGTT against Fcgr4 reads inactive: -0.245; that for GGGUAUGAGGGCCAAAAUATT against Pheta1, inactive: 0.699.
To GGUGACCAAGCAGAUAACATT against Prcc belongs inactive: -1.19.
As for CCUAAAAUACUUUACCGGGTT against Bckdhb, the z-score is inactive: -0.025.
For GGAGAUUUACACUUUACUATT against Spata4, the z-score was inactive: 0.901.
In the case of GGGAUGCUUUUGGCCCAAATT against Rita1, the z-score is inactive: 0.901.
The result for CCAACGUACCAGCAAUAGUTT against Rab8a reads inactive: 0.0739.
To GGUAGAAGAAUUGUUUGUGTT against Tcp11l1 belongs inactive: 0.967; to CGCAAUUUGACAUUUGGAUTT against Plekhh2, inactive: -1.67.
Consider CGAAUGAGAUUUUCACUCUTT against Tek, for which the z-score was inactive: 1.07.
The result for GGACUGGAUUCAAACAAAATT against Lrrc1 reads inactive: -0.796.
To CGAGUGAAUUCGAUGGACCTT against Olfr945 belongs inactive: 0.524; to GGUUUUUCUUCAUCUUAUCTT against Hspb8, inactive: 0.396; to GGAAUCCUCUGAAUAACCUTT against Vmn1r172, inactive: -1.14.
To GGAUUGUGGGAGAUAGAUATT against Psip1 belongs inactive: 0.901; to UGCUUUUUUGCCUAGCCAATT against Gpr135, inactive: 0.44.
For GCACCAAGGAACUUGUUUCTT against Trpv2, the z-score is inactive: -0.112.
The result for “GCCAGGUUAAGCACUACGUTT against 2310022B05Rik” reads inactive: 0.083; that for GGAUUGUGCAGAGCAUCUGTT against Card14, inactive: -1.45; that for GGAUCCUCGGACUAAAAGUTT against Pnma1, inactive: -0.228.
For GCUAGUUAAUGGUAACAUATT against Sult1d1, the z-score was inactive: -1.68.
To GGUCACCUAAGUGCUUACGTT against Ceacam2 belongs inactive: -0.46; to GGAACAGCUCUUUUGUGCUTT against Rin2, inactive: 0.714.
The result for GGACAAAUGACUGGUACCCTT against Gorasp2 reads inactive: -0.314.
The result for CCUGUUCUGUUAUCAACGGTT against Plxdc1 reads inactive: 0.123.
Take GGAAAGCUCACUUUCUUUUTT against Lmln: the z-score was inactive: 0.185.
For the sequence GAUGUACGAUCUGGUGGUGTT against Exosc6, the z-score was active: 2.73.
The result for CGUGAAUCCUAACAUGAGATT against Sec11c reads inactive: 0.0104; that for CGCUAGAAGGAUUAUACCUTT against Vps13c, inactive: 1.29; that for GGUAUUUAGAAACAUCAGUTT against Wls, active: -2.16.
Turning to GGAGACACGGCCCUAAUCATT against Ddah2, the z-score is inactive: -1.35.
To GGCGAGUUUGUUCUCUUAGTT against Olfr11 belongs inactive: 0.874; to AGUUCGACUUUGACGACGGTT against Jph4, inactive: 1.28; to GGAAGUCCUUGCAUUCCUCTT against Dlec1, inactive: 0.816.
To GGAAAAGGAAAAAUAACCUTT against Ptma belongs inactive: -0.555; to GCAGAUCUAUAACAUUACATT against Rbsn, inactive: 0.366; to CCAUAUACCCUUGAAUUCCTT against Tmem185b, inactive: 0.154.
The result for CCUCGAAAUACGAAGGCAATT against Amz2 reads inactive: 0.232; that for GGUGCAUUAUAAGAAUCGCTT against Fhl1, inactive: 0.144.
For the sequence GGUGUACACAUAAAUAUUGTT against Prl8a6, the z-score is inactive: -0.121.
CCAUGUUAGAACUGGGACUTT against Tafa2: the z-score was active: 2.44.
To GCUGACAAUACUGAAUUGGTT against Pkhd1l1 belongs inactive: -0.67; to GGAAUAUUUGCUUCGACAGTT against Alkbh6, inactive: 0.885.
The result for GCUGAACUGUCUCAGCUCATT against Tmem81 reads active: 2.06.
To GCAAGUCCUACAAUACAACTT against Tk1 belongs active: 5.5.
For the sequence GGUGAAGCUAUUUUUCUCATT against Nadsyn1, the z-score is inactive: 0.45.
The result for GCGAAGCCAUGUUUCACCUTT against Selenoo reads inactive: -1.99.
To GCAUCAUUGUCAAUCAUAUTT against Olfr578 belongs active: -2.25; to GGAAGUGAUACUGUCUAUATT against Rfx3, inactive: 0.52.
The result for GCAAACGCAGUACUAUGGUTT against Pak2 reads inactive: -0.818.
GGAAAACCUUGGACAGGAGTT against Olfr876: the z-score was inactive: -0.267.
